Residue numbers refer to the chain shown, from its start. In names and notes the source's numbering stands. Read-outs that look alike come from different tables or passages of the source. Results are given in words; binding and its absence hold for the method and conditions named. Binding seen in cells or lysates may run through a third protein. Binding calls can cover weak binding; strength is not graded here.
B1: B. fragilis Cmr4 (Cas7) D27A (protein, UniProt A0A9X9NER2 1-279)
chain: MTTRMYVINTLSNMHVGSGEVNYGVIANLIQRDSVTNLPNINSSGLKGAIREYFKENEDLVRELFGSAPRDEKTLPGKVRFFEANLLSMPVRSDKVPFLMAISDEVLQELITKMKFFNCEEATQYISHLSTLLDNIKTQAQGTDFAYVFDPLLQGAIIEEVSIRATCPSHIPLQPSLKKLLGDRLVILSHKYFSILSDDNHLPVLSRNNLENGQSANLWYEQVLPRYSRLYFMLMDGNAQSEYLKKFRDTLCTPSTIIQIGANASIGYGYCQISELSPF
B2: B. fragilis Cmr4 (Cas7), wild type (protein, UniProt A0A9X9NER2 1-279)
chain: B1 chain with A27D
B3: B. fragilis Cmr6 (protein, UniProt A0A2M9V7I0 1-314)
chain: MPKNYTLQNASNLGWLFYKDYYRQEPNVDFISTQGKESDTTADFFRKTNQRITAYQLNSESPLVAAFNNHFGTPLQLKTIYPGLITGSGLPHQTGSKGEFKLGFQFDYTTGLPYIPGSSIKGTLRSMFPFSLKDKGSTKRILPEYRKERMEYIRDLIIEVTNINEISDTEIQALEYAIFTNSTPSGKTIEFSLEEKDVFYDAFVADSKDGVMLSDDYITPHGENPLKDPKPILFLKIRPDVTINFYFKLCTTHLYKEKVCSSKQIEEIKKQNDFSSSDYKMITAHQKRNLFEKILLCIGIGAKTNIGYGQLKKL

Legend:
[1] = biological target: B. fragilis Cmr3 (Bacteroides fragilis)
[2] = biological target: B. fragilis Cmr3 (Bacteroides fragilis); remark: listed apart in the source

binding [1]	binding [2]	Binder
binds	–	B1
–	binds	B2
–	binds	B3

— paper PMC10600005 (Nature, 2023)
